{
  "source": "paper PMC3694852",
  "target": "T1, FLAG-tagged murine RNase L, expressed from a plasmid (mouse) (UniProt Q05921)",
  "T1 sequence": "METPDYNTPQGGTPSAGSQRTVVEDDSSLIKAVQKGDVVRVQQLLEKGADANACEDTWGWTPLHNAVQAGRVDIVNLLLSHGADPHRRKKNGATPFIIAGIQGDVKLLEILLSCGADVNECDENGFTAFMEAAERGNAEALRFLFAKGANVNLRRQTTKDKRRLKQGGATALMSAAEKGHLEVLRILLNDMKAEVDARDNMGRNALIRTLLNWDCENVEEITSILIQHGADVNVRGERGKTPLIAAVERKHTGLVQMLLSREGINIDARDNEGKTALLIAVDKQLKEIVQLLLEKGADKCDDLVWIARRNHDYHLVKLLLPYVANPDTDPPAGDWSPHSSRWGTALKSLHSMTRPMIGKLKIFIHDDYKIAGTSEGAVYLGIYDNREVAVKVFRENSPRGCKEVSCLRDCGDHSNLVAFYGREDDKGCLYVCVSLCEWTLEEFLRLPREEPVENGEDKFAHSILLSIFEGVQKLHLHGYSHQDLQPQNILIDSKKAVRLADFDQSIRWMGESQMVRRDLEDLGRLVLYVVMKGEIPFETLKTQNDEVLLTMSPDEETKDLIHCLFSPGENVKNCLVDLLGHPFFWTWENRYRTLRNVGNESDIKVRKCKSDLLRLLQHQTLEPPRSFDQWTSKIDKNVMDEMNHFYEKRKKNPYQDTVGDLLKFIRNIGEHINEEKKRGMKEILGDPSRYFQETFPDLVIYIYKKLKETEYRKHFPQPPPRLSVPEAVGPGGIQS",
  "experiment": "co-IP; lysates of 293/T cells cotransfected with HA-L* and FLAG-RNase L constructs (murine, human or chimeric); IP with anti-FLAG and anti-HA, protein A/G resin, 4°C; lysis buffer Tris-HCl 50 mM pH 8, NaCl 100 mM, NP40 0.5%, EDTA 2 mM; immunoblot",
  "note": "No constants are given. Whether binding was seen depends on the method and setting. In cells and extracts the contact can be indirect. Binding calls can cover weak binding; strength is not graded here. Tags and fused reporters may be left off the sequences shown.",
  "data": [
    {"substance": "HA-tagged L* protein of Theiler's murine encephalomyelitis virus, expressed from a plasmid", "values": [
      {"measurement": "binding", "result": "binds"}
    ]}
  ]
}
